{
  "source": "patent US20220144902A1",
  "about": "“METHOD FOR INDUCING MUSCULAR CELLS USING CELLS IN SPOT URINE” (NATIONAL CENTER OF NEUROLOGY AND PSYCHIATRY, priority 2018, published 2022)",
  "tested_on": "MYOD1-positive urine-derived cells",
  "test": "Promotion of myotube induction by low molecular compounds, myosin heavy chain immunocytochemistry",
  "type": "cell-based, human",
  "conditions": "compound added to differentiation medium with doxycycline; FIG. 3A 1 μM, FIG. 3B 10 μM",
  "experimental": "The MYOD1-positive urine-derived cells were plated onto a collagen-coated culture dish or plate and cultured in a differentiation medium supplemented with doxycycline (e.g., 1 μg/ml) (the medium containing high-glucose-containing DMEM with GlutaMAX-I (Thermo Fisher Scientific; 10569-010), 5% horse serum, ITS Liquid Media Supplement (Sigma; 13146), and 1 μg/ml doxycycline) to induce the myotubes. Whether or not muscular differentiation could be promoted with the addition of a low molecular compound in a compound library (Sigma; S990043-EPI1) to the differentiation medium was examined. The low molecular compound was added at a final concentration of 0.1, 1, or 10 μM. Myotube induction was evaluated by immunocytochemistry and Western blotting.\nFor immunocytochemistry, cultured cells were washed in PBS, fixed in 4% paraformaldehyde, and then incubated with the addition of 0.1% Triton-X at room temperature for 10 minutes. […] An image was obtained using a fluorescence microscope (BZ-9000 or BZ-X800, KEYENCE, Osaka, Japan) and analyzed using the BZ-X Analyzer (KEYENCE).\nAs a result, it was founded that a degree of muscular differentiation evaluated in terms of the myosin heavy chain protein expression level by immunocytochemistry was enhanced to a significant extent with the addition of the epigenetic regulatory compound(s) to the differentiation medium (FIGS. 3 and 4). […]",
  "note": "Counter-ions that a name gives are not always drawn. For at least one compound, name, drawing or mass did not settle the structure.",
  "data": [
    {"smiles": "N=C(N)c1ccc(-c2ccc(-c3ccc(C(=N)N)cc3)o2)cc1", "note": "[furamidine dihydrochloride]", "values": [
      {"measurement": "degree of muscular differentiation evaluated in terms of the myosin heavy chain protein expression level by immunocytochemistry", "value": "observed"}
    ]}
  ]
}
